From PubChem BioAssay AID256 (DTP/NCI, 2004)
The list does not hold the whole screen: it is rich in T/C values a quarter to a half above the control, in often repeated tests (any T/C) and in doses without a T/C. Other doses and runs of a compound stand elsewhere. T/C: endpoint of the treated group in % of that of the vehicle group. Some doses have a count of surviving animals in place of a T/C: the source files T/C as zero there, which appears to mark a toxic dose or a test without result, not a measured value. Some doses without a T/C left all or most animals alive at the check, yet need not have been tolerated: survival well below the control is almost never listed, so the zero probably covers shortened survival too. Survivors were counted at the toxicity check, usually on the fifth day, unless a day is given; later deaths do not show. Schedules are NCI's codes, taken here to give the interval after Q, in days (D) or hours (H), and the number of doses after X. Some entries hold several experiments; their values stand side by side, smallest first. Where survival is the endpoint, this PubChem deposit counts one and a half times the control or more as active, and values a quarter to a half above the control carry no call in these data; other NCI protocols may use other cut-offs. Some T/C values are followed by the survivors on the day toxicity was checked, most often the fifth; where none is given, no animal had died by that day. Counts like (3×) give the number of equal values in this list.

Test system: CD2F1 mice, L1210 leukemia ip, survival T/C
Assay: NCI In Vivo Anticancer Drug Screen. Data for tumor model L1210 Leukemia (intraperitoneal) in CD2F1 (CDF1) mice
Details: higher T/C = longer survival
Procedure, shortened: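 Antitumor effect is scored in animals hosting a serially transplanted tumor. Values compare compound-dosed animals against vehicle-only controls as a simple quotient.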

[1] = T/C endpoint: mean survival time, dose: 200.0 mg/kg/injection, schedule: Q04DX002 (ip), vehicle: saline with Tween-80
[2] = T/C endpoint: mean survival time, dose: 400.0 mg/kg/injection, schedule: Q04DX002 (ip), vehicle: saline with Tween-80
[3] = T/C endpoint: median survival time, dose: 2.0 mg/kg/injection, schedule: Q01DX005 (ip), vehicle: Klucel (hydroxypropylcellulose) (HPC)
[4] = T/C endpoint: median survival time, dose: 2.0 mg/kg/injection, schedule: Q01DX009 (ip), vehicle: Klucel (hydroxypropylcellulose) (HPC)
[5] = T/C endpoint: mean survival time, dose: 200.0 mg/kg/injection, schedule: Q01DX009 (ip), vehicle: Klucel (hydroxypropylcellulose) (HPC)
[6] = T/C endpoint: mean survival time, dose: 200.0 mg/kg/injection, schedule: Q04DX003 (ip), vehicle: saline with Tween-80
[7] = T/C endpoint: mean survival time, dose: 400.0 mg/kg/injection, schedule: Q04DX003 (ip), vehicle: saline with Tween-80
[8] = T/C endpoint: mean survival time, dose: 50.0 mg/kg/injection, schedule: Q01DX009 (ip), vehicle: saline with Tween-80

Structure (SMILES): CC(C)(C)CC(C)(C)SSc1n[nH]c(=S)s1
- survivor count (T/C endpoint: mean survival time, dose: 20.0 mg/kg/injection, schedule: Q04DX003 (ip), vehicle: Klucel (hydroxypropylcellulose) (HPC)): 4 of 6
- survivor count (T/C endpoint: mean survival time, dose: 40.0 mg/kg/injection, schedule: Q04DX003 (ip), vehicle: Klucel (hydroxypropylcellulose) (HPC)): 0 of 6
- survivor count (T/C endpoint: mean survival time, dose: 100.0 mg/kg/injection, schedule: Q04DX003 (ip), vehicle: Klucel (hydroxypropylcellulose) (HPC)): 0 of 6
- survivor count (T/C endpoint: mean survival time, dose: 200.0 mg/kg/injection, schedule: Q04DX003 (ip), vehicle: Klucel (hydroxypropylcellulose) (HPC)): 0 of 6
- survivor count (T/C endpoint: mean survival time, dose: 400.0 mg/kg/injection, schedule: Q04DX003 (ip), vehicle: Klucel (hydroxypropylcellulose) (HPC)): 0 of 6

Structure (SMILES): CN(C)CC(Cl)CCl (stereo not drawn)
- survivor count (T/C endpoint: mean survival time, dose: 400.0 mg/kg/injection, schedule: Q01DX009 (ip), vehicle: saline): 0 of 10 and 3 of 6

Structure (SMILES): Cc1cn(C2CC3OP(O)(=S)OCC3O2)c(=O)[nH]c1=O (stereo not drawn)
- survivor count (T/C endpoint: mean survival time, dose: 140.0 mg/kg/injection, schedule: Q01DX005 (ip), vehicle: water): 0 of 6

Structure (SMILES): C[n+]1c(/C=C\C=C\N2CCCCC2)sc2ccccc21
- survivor count (T/C endpoint: mean survival time, dose: 50.0 mg/kg/injection, schedule: Q04DX002 (ip), vehicle: saline with Tween-80): 0 of 3
- survivor count (T/C endpoint: mean survival time, dose: 100.0 mg/kg/injection, schedule: Q04DX002 (ip), vehicle: saline with Tween-80): 0 of 3
- survivor count [1]: 0 of 3
- survivor count [2]: 0 of 3
- T/C (T/C endpoint: median survival time, dose: 0.13 mg/kg/injection, schedule: Q01DX005 (ip), vehicle: Klucel (hydroxypropylcellulose) (HPC)): 98, 100, 102 (3×), 103, 104, 105, 112 (2×), 114 % of control
- T/C (T/C endpoint: median survival time, dose: 0.13 mg/kg/injection, schedule: Q01DX009 (ip), vehicle: Klucel (hydroxypropylcellulose) (HPC)): 96, 102 (4×), 104 (2×), 105, 106, 107 % of control (2×)
- T/C (T/C endpoint: median survival time, dose: 0.25 mg/kg/injection, schedule: Q01DX005 (ip), vehicle: Klucel (hydroxypropylcellulose) (HPC)): 100, 101, 102 (2×), 103, 107, 108 (2×), 109, 110 % of control (2×)
- T/C (T/C endpoint: median survival time, dose: 0.25 mg/kg/injection, schedule: Q01DX009 (ip), vehicle: Klucel (hydroxypropylcellulose) (HPC)): 97, 98, 100 (2×), 102 [5 of 6 alive], 104, 105 (2×), 106, 108, 113 % of control
- T/C (T/C endpoint: median survival time, dose: 0.5 mg/kg/injection, schedule: Q01DX005 (ip), vehicle: Klucel (hydroxypropylcellulose) (HPC)): 98, 100, 101 [5 of 6 alive], 102 (3×), 104, 105, 106, 110, 112 % of control
- T/C (T/C endpoint: median survival time, dose: 0.5 mg/kg/injection, schedule: Q01DX009 (ip), vehicle: Klucel (hydroxypropylcellulose) (HPC)): 101, 102, 103 (3×), 106 (2×), 108 (2×), 110, 114 % of control
- T/C (T/C endpoint: median survival time, dose: 1.0 mg/kg/injection, schedule: Q01DX005 (ip), vehicle: Klucel (hydroxypropylcellulose) (HPC)): 98, 102, 105 (2×), 106 (2×), 107, 108, 109, 113, 114 % of control
- T/C (T/C endpoint: median survival time, dose: 1.0 mg/kg/injection, schedule: Q01DX009 (ip), vehicle: Klucel (hydroxypropylcellulose) (HPC)): 100, 102, 104 (2×), 105, 106, 110, 112, 113, 123, 125 % of control
- T/C [3]: 104, 109 [5 of 6 alive], 110, 112, 113 (2×), 116, 119, 120, 121 % of control [5 of 6 alive]
- survivor count [3]: 4 of 6
- T/C [4]: 96, 102, 107, 110 (2×), 113 [5 of 6 alive], 120, 121 [5 of 6 alive], 123, 132 % of control
- survivor count [4]: 3 of 6

Structure (SMILES): OCCc1ccccc1
- survivor count (T/C endpoint: mean survival time, dose: 400.0 mg/kg/injection, schedule: Q03HX024 (ip), vehicle: saline with Tween-80): 0 of 6
- survivor count (T/C endpoint: mean survival time, dose: 1000.0 mg/kg/injection, schedule: Q01DX001 (ip), vehicle: saline with Tween-80): 0 of 6
- survivor count (T/C endpoint: mean survival time, dose: 1000.0 mg/kg/injection, schedule: Q01DX009 (ip), vehicle: saline): 0 of 6
- survivor count (T/C endpoint: mean survival time, dose: 2000.0 mg/kg/injection, schedule: Q01DX001 (ip), vehicle: saline with Tween-80): 0 of 6
- survivor count (T/C endpoint: mean survival time, dose: 4000.0 mg/kg/injection, schedule: Q01DX001 (ip), vehicle: saline with Tween-80): 0 of 6

Structure (SMILES): Cc1cc(N2C(=O)CCSC2=S)ccc1Cl
- T/C (T/C endpoint: mean survival time, dose: 50.0 mg/kg/injection, schedule: Q01DX009 (ip), vehicle: Klucel (hydroxypropylcellulose) (HPC)): 125 % of control
- T/C [5]: 129 % of control
- survivor count (T/C endpoint: mean survival time, dose: 400.0 mg/kg/injection, schedule: Q01DX009 (ip), vehicle: Klucel (hydroxypropylcellulose) (HPC)): 2 of 6 and 6 of 6

Structure (SMILES): CCN(CC)Cc1cc(O)ccc1NCCCNc1ccnc2cc(Cl)ccc12
- survivor count [6]: 1 of 6
- survivor count [7]: 0 of 6

Structure (SMILES): c1cc2c(c(N3CCNCC3)c1)CCCC2
- survivor count (T/C endpoint: mean survival time, dose: 400.0 mg/kg/injection, schedule: Q01DX001 (ip), vehicle: saline with Tween-80): 2 of 6

Structure (SMILES): COc1ccc2c(c1)N(CC(C)C[N+](C)(C)CCCCCCCCCCCCCCCC[N+](C)(C)CC(C)CN1c3ccccc3Sc3ccc(OC)cc31)c1ccccc1S2 (stereo not drawn)
- survivor count (T/C endpoint: mean survival time, dose: 400.0 mg/kg/injection, schedule: Q04DX003 (ip), vehicle: saline): 6 of 6

Structure (SMILES): COc1cc2c(c(OC)c1OC)-c1ccc(OC)c(=O)cc1[C@@H](NC=O)CC2
- survivor count (T/C endpoint: mean survival time, dose: 6.25 mg/kg/injection, schedule: Q04DX003 (ip), vehicle: Klucel (hydroxypropylcellulose) (HPC)): 3 of 6
- survivor count (T/C endpoint: mean survival time, dose: 12.5 mg/kg/injection, schedule: Q04DX003 (ip), vehicle: Klucel (hydroxypropylcellulose) (HPC)): 2 of 6
- survivor count (T/C endpoint: mean survival time, dose: 25.0 mg/kg/injection, schedule: Q04DX003 (ip), vehicle: Klucel (hydroxypropylcellulose) (HPC)): 0 of 6

Structure (SMILES): CC(=O)OCC1OC(n2ncc3c(Sc4c([N+](=O)[O-])ncn4C)ncnc32)C(OC(C)=O)C1OC(C)=O (stereo not drawn)
- survivor count (T/C endpoint: mean survival time, dose: 200.0 mg/kg/injection, schedule: Q01DX009 (ip), vehicle: other): 1 of 6
- survivor count (T/C endpoint: mean survival time, dose: 400.0 mg/kg/injection, schedule: Q01DX009 (ip), vehicle: other): 1 of 6

Structure (SMILES): c1ccc(CCc2ccccn2)nc1
- survivor count [6]: 3 of 6
- survivor count [7]: 0 of 6

Structure (SMILES): CC1(C)OCC2OC3(CO)NP(=O)(N(CCCl)CCCl)OC3C2O1 (stereo not drawn)
- survivor count (T/C endpoint: mean survival time, dose: 500.0 mg/kg/injection, schedule: Q01DX001 (ip), vehicle: distilled water + Tween-80): 3 of 6

Structure (SMILES): Cc1cc2c(=O)c(C)c[nH]c2cc1Cl
- survivor count [5]: 3 of 3

Structure (SMILES): NC(N)=N/N=C/c1cc(Br)ccc1O
- survivor count (T/C endpoint: mean survival time, dose: 75.0 mg/kg/injection, schedule: Q01DX009 (ip), vehicle: saline): 3 of 6
- survivor count (T/C endpoint: mean survival time, dose: 150.0 mg/kg/injection, schedule: Q01DX009 (ip), vehicle: saline): 2 of 6

Structure (SMILES): O=C(NC1CCCCC1)OCc1c(COC(=O)NC2CCCCC2)c(-c2ccc(Cl)c(Cl)c2)n2c1CCC2
- T/C (T/C endpoint: mean survival time, dose: 25.0 mg/kg/injection, schedule: Q01DX009 (ip), vehicle: saline with Tween-80): 130 % of control
- T/C [8]: 133 and 137 % of control
- T/C (T/C endpoint: mean survival time, dose: 100.0 mg/kg/injection, schedule: Q01DX009 (ip), vehicle: saline with Tween-80): 142 % of control

Structure (SMILES): CCCC(=O)Oc1ccc(/C=N/NC(N)=S)nc1
- T/C [8]: 145 % of control
- T/C [1]: 126 % of control
- survivor count (T/C endpoint: mean survival time, dose: 400.0 mg/kg/injection, schedule: Q01DX009 (ip), vehicle: saline with Tween-80): 6 of 6
- T/C [2]: 134 % of control
- survivor count (T/C endpoint: mean survival time, dose: 600.0 mg/kg/injection, schedule: Q01DX009 (ip), vehicle: saline with Tween-80): 5 of 6
- T/C (T/C endpoint: mean survival time, dose: 600.0 mg/kg/injection, schedule: Q04DX003 (ip), vehicle: saline with Tween-80): 129 % of control
- T/C (T/C endpoint: mean survival time, dose: 800.0 mg/kg/injection, schedule: Q04DX002 (ip), vehicle: saline with Tween-80): 146 % of control
- T/C (T/C endpoint: mean survival time, dose: 900.0 mg/kg/injection, schedule: Q04DX003 (ip), vehicle: saline with Tween-80): 140 % of control
- T/C (T/C endpoint: median survival time, dose: 25.0 mg/kg/injection, schedule: Q01DX009 (ip), vehicle: saline with Tween-80): 128 and 132 % of control
- T/C (T/C endpoint: median survival time, dose: 50.0 mg/kg/injection, schedule: Q01DX009 (ip), vehicle: saline with Tween-80): 128 % of control
- T/C (T/C endpoint: median survival time, dose: 277.78 mg/kg/injection, schedule: Q01DX005 (ip), vehicle: saline with Tween-80): 125 % of control

Structure (SMILES): CCC1CCC2C(CCC3(N(C)C)CCC(OC)C(OC)C23)C1 (stereo not drawn)
- survivor count (T/C endpoint: mean survival time, dose: 50.0 mg/kg/injection, schedule: Q01DX001 (ip), vehicle: saline with Tween-80): 1 of 6
- survivor count (T/C endpoint: mean survival time, dose: 100.0 mg/kg/injection, schedule: Q01DX001 (ip), vehicle: saline with Tween-80): 0 of 6
- survivor count (T/C endpoint: mean survival time, dose: 200.0 mg/kg/injection, schedule: Q01DX001 (ip), vehicle: saline with Tween-80): 0 of 6
